# Laboratory results published in PubChem BioAssay AID1347426 (Functional Genomics Laboratory (NCATS/FGL), 2020).
# Among all 31,000 sequences or so, about 1,400 (4.5%) were called active.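 Rule for the calls: active = median seed-adjusted z-score above 1 or below -1; inactive = the rest.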 The list shows a part of the results.
# Experiment: Novel Modifiers of Survival Motor Neuron (SMN) Protein: Gene Identification via Genome-wide siRNA Screen;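 note: luminescence tracks full-length SMN protein made from the SMN2 reporter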
# Conditions: HEK293T SMN2-luciferase reporter, siRNA knockdown, 72 h; actives lie on both sides
# Method in brief: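 siRNA screen, 10418 genes ×3 siRNAs; 1 pmol/well, lipid reverse transfection into HEK293T SMN2-luc reporter line. 72 h, 37 °C, 5% CO2; ONE-Glo readout. Data: neg-ctrl normalized, log10, MAD; hit = MAD >1.0 or < -1.0.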
row,Sequence,median seed-adjusted z-score
1,CUACCGCAACCUCACCCUATT against B3GALT4,inactive: 0.233
2,GUAUGACUAUGGAUCUAAUTT against HOXC6,inactive: -0.137
3,GCAUUGACCUAGUCAAAUUTT against TNNI3K,inactive: -0.178
4,CAUCGACUGUCGAUACCCATT against CDC25A,inactive: 0.235
5,UGAUGACCCUGUCCCUGCATT against FOXN4,inactive: 0.15
6,GGCUUUUGGAGUAUGUAGATT against ZNF529,inactive: -0.243
7,ACCUAUUACUCGCGCCGGATT against GPR6,inactive: 0
8,CAAACAAUAUGAGAGUGUUTT against IL7,inactive: 0.253
9,GUGUGGUGAUGAUCGAAAATT against YWHAQ,inactive: -0.412
10,AGAUUGAGUUCACACCUGATT against MYL3,inactive: 0.212
11,GCGGAAAGUUCUUCGAAUATT against SLC9A7,inactive: 0.349
12,GAUGGGAUCUUUCACCAGATT against NLN,inactive: 0.248
13,CCCAUGCCCAGAUCAAGAATT against MAN2C1,inactive: -0.489
14,UGAGCGAGUUGAUUUCACATT against ATF5,inactive: 0.233
15,GGAGCUAGCCGAAUUCGAATT against SAT2,inactive: -0.43
16,ACAGCUCUGGGUACAACAATT against ZNF167,inactive: 0.409
17,GUAUCUGACUGACAUCCUUTT against PLCH2,inactive: 0.593
18,CCAUCAUGGUGACUAAGGUTT against PDLIM2,inactive: 0.267
19,GGCUUCAUGUGAUAUGACATT against ZNF324,inactive: 0
20,GCGUAAAUAUUGACAUCUUTT against NEK4,inactive: -0.076
21,CAGAGCUUCUUUUCCCUAATT against S100A10,inactive: 0.366
22,CCGUAUAUCUGGUGGUUAUTT against PLOD2,inactive: -0.281
23,GCAUGUCUCUUCUCGAAGATT against SCPEP1,inactive: -0.99

row,Sequence,median seed-adjusted z-score
1,CAGUUUCUGUGAAUAGGCUTT against ARNT,inactive: -0.244
2,GCAACUUUGUCAACUACAATT against RFFL,inactive: -0.437
3,CCUCCGUCAUGUUAUCAAUTT against PBX3,inactive: 0.847
4,GCUAAAGACCUAAUAGUCATT against BCAT1,inactive: -0.604
5,CAACUGGAAGAUUACUUGATT against PLD1,inactive: 0.518
6,GCUUAUUAUGAGUUUAAGATT against SFRS8,inactive: -0.353
7,CCUUGGAACGUGGACAGAATT against FARP1,inactive: -0.487
8,GCUCAGUACAGGCAAGUCATT against RASL12,inactive: -0.256
9,GUCGAUCAGAUGAUAAUGATT against AK2,inactive: 0.418
10,GCCCGUUUCCGUUACCUAATT against LDHC,inactive: 0.537
11,GGAAGGUUUAGAAAGAAAATT against PDLIM4,inactive: -0.637
12,CAGUCCAUGUAUUACACCATT against IPO11,inactive: -0.245
13,GGAUAGCAAUGGAUACUGATT against DBT,inactive: -0.976
14,GGAGCAGGAUGUGAGUAGATT against SHPK,inactive: 0
15,GAGAAAGUAUGAGCGAAAATT against ST13,inactive: 0.286
16,GCUGUAACGAAGUUCCUGATT against TPP1,inactive: -0.0334
17,GGGACAAUCUUAUAGUGCATT against SSX2IP,inactive: -0.0799
18,GGAUGUAAGAUCACCGUUUTT against ASMT,inactive: -0.322
19,GCAUUUGCCUUAGAGAAGATT against ZNF592,inactive: 0.0774
20,UGAGGAGGGCUAUUACAAATT against SPOCK1,inactive: -0.596
21,CCAUGGAACUGGUUAGAUUTT against SCN8A,inactive: 0
22,UCUGAGUAAAGUUACCUUATT against RAMP3,inactive: 0
23,GAACUACGCCUCCAUCAUATT against MYCL1,inactive: 0.0658

row,Sequence,median seed-adjusted z-score
1,GCACAAAUCUCAAUAUUCATT against GPSM3,inactive: -0.641
2,CAGAUGAACAUGUACGGCATT against LPAR5,inactive: 0.0711
3,GCACGUAUGAUCUCUCUAATT against RIPK2,inactive: 0.176
4,GGAGAGGGUUGACAAAGUATT against PCYT1A,inactive: 0.0429
5,GCACUAGACUCAGCUGUAUTT against TYSND1,inactive: -0.0298
6,CUACAACAUCCAGCCUAAATT against STON1-GTF2A1L,inactive: 0.294
7,GGACGACACUUCAAUUAUUTT against PAPD5,inactive: 0.325
8,UGAACAUGAUGCACAUCUATT against RHD,inactive: 0.496
9,GGUUAAGUCAGCUUAGGUATT against DNAH7,inactive: 0.287
10,GGUCUCUUCUAUCACUGUUTT against SPRY2,inactive: 0.148
11,GGCCCAUUCUGGGAUCAGUTT against POFUT1,inactive: 0
12,GCAUCCAUAGAGUAAUAAATT against ZNF444,inactive: -0.218
13,GAGGCCAGGUUGAAAGCUUTT against SLC25A45,inactive: -0.246
14,GGCAUGGGAUGGACAGAGATT against ZNF444,inactive: -0.218
15,GGUAAUGAAUAUUCGAACATT against MAN1A1,inactive: 0
16,GAAUAGUUAGGAUACCAAUTT against EFHD1,inactive: -0.326
17,GCCUGUCAAUUCUUAUAUATT against SLC10A5,inactive: 0.539
18,GGAGAAGAAUUUCACGAGATT against VPS41,inactive: 0.52
19,AGAUCGACAAGAUGCAAGATT against FOXN1,inactive: 0.226
20,CGAUCGAUGUGAUCAUCUUTT against AGPAT6,inactive: 0
21,AGAUUAAGGAUAUGGAUGATT against CHRNA9,inactive: -0.454
22,GGUGGGAGAUUGAACGGGATT against RNF113B,inactive: -0.228
23,GCAUUUGUUUGGGUUGCGATT against MTF2,inactive: 0

# Looked up one by one from above (four):
row,Sequence,median seed-adjusted z-score
2,GUAUGACUAUGGAUCUAAUTT against HOXC6,inactive: -0.137
3,GCACGUAUGAUCUCUCUAATT against RIPK2,inactive: 0.176
13,GAGGCCAGGUUGAAAGCUUTT against SLC25A45,inactive: -0.246
12,CAGUCCAUGUAUUACACCATT against IPO11,inactive: -0.245
